Measurements: PubChem BioAssay AID296 (DTP/NCI, 2004)
The list does not hold the whole screen: it is rich in T/C values a quarter to a half above the control, in often repeated tests (any T/C) and in doses without a T/C. Further doses and runs are listed elsewhere. T/C: endpoint of the treated group in % of that of the vehicle group. Schedules are NCI's codes, read here as Q, the interval in days (D) or hours (H), X, the number of doses. Some T/C values are followed by the survivors on the day toxicity was checked, most often the fifth; without a count, all were alive then. Some entries hold several experiments; the results are listed from low to high. Some values lie below zero, which means that the treated tumours became smaller. Some doses have a count of surviving animals in place of a T/C: the source holds a T/C of zero for them, seemingly a mark for toxic or unscored doses. Counts of survivors are from the toxicity check (mostly the fifth day) where no day follows; animals may have died later.

Test system: MX-1 breast xenograft, nude mice, tumor weight T/C
Experiment: NCI In Vivo Anticancer Drug Screen. Data for tumor model Human Mammary Carcinoma MX-1 Xenograft (intrarenal inoculation) in NU/NU Swiss (nude) mice
Settings: T/C endpoint: mean tumor weight change, higher T/C = larger tumour; for T/C: evaluated on day 11
In short: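 Read-out: treated (T) over vehicle control (C) ratio of survival or tumor size. Dosing in animals carrying the transplanted tumor.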

[1] = dose: 25.0 mg/kg/injection, schedule: Q01DX010 (sc), vehicle: saline
[2] = dose: 400.0 mg/kg/injection, schedule: Q04DX003 (sc), vehicle: saline with Tween-80
[3] = dose: 50.0 mg/kg/injection, schedule: Q01DX010 (sc), vehicle: Klucel (hydroxypropylcellulose) (HPC)
[4] = dose: 100.0 mg/kg/injection, schedule: Q01DX010 (sc), vehicle: Klucel (hydroxypropylcellulose) (HPC)
[5] = dose: 400.0 mg/kg/injection, schedule: Q01DX010 (sc), vehicle: Klucel (hydroxypropylcellulose) (HPC)
[6] = dose: 800.0 mg/kg/injection, schedule: Q01DX010 (sc), vehicle: Klucel (hydroxypropylcellulose) (HPC)
[7] = dose: 200.0 mg/kg/injection, schedule: Q04DX003 (sc), vehicle: Klucel (hydroxypropylcellulose) (HPC)
[8] = dose: 400.0 mg/kg/injection, schedule: Q04DX003 (sc), vehicle: Klucel (hydroxypropylcellulose) (HPC)
[9] = dose: 50.0 mg/kg/injection, schedule: Q01DX010 (sc), vehicle: saline
[10] = dose: 200.0 mg/kg/injection, schedule: Q01DX010 (sc), vehicle: Klucel (hydroxypropylcellulose) (HPC)
[11] = dose: 60.0 mg/kg/injection, schedule: Q01DX010 (sc), vehicle: Klucel (hydroxypropylcellulose) (HPC)
[12] = dose: 120.0 mg/kg/injection, schedule: Q01DX010 (sc), vehicle: Klucel (hydroxypropylcellulose) (HPC)
[13] = dose: 100.0 mg/kg/injection, schedule: Q01DX010 (sc), vehicle: saline
[14] = dose: 200.0 mg/kg/injection, schedule: Q01DX010 (sc), vehicle: saline
[15] = dose: 400.0 mg/kg/injection, schedule: Q01DX010 (sc), vehicle: saline

With `CCCCNC(C)[C@]1(O)Cc2c(O)c3c(c(O)c2[C@@H](OC2CC(N)C(O)C(C)O2)C1)C(=O)c1c(OC)cccc1C3=O` (stereo partly drawn) the survivor count [1] was 0 of 3 on day 11 and 1 of 3 on day 11 and the survivor count (dose: 36.0 mg/kg/injection, schedule: Q01DX010 (sc), vehicle: saline) was 0 of 3 on day 11.

In the case of `CC12CCC3C(CCC4CC(OC(=O)Cc5ccc(N(CCCl)CCCl)cc5)CCC43C)C1CCC(=O)N2` (stereo not drawn), the survivor count (dose: 200.0 mg/kg/injection, schedule: Q04DX003 (sc), vehicle: saline with Tween-80) is reported as 3 of 6 on day 11 and the survivor count [2] is reported as 0 of 6 on day 11 and 3 of 6 on day 11.

In the case of `CC(=O)C(O)N1C(=O)C=CC1=O` (stereo not drawn), the survivor count (dose: 20.0 mg/kg/injection, schedule: Q01DX010 (sc), vehicle: saline) is reported as 0 of 3 on day 11.

With `C=C(C)[C@]12CC(C)C34OC(/C=C\C=C\CCCCCCCCC)(O[C@@H]1[C@@H]3[C@@H]1O[C@]1(CO)[C@@H](O)[C@]1(O)C(=O)C(C)=C[C@@H]41)O2` (stereo partly drawn) the survivor count (dose: 24.0 mg/kg/injection, schedule: Q04DX003 (sc), vehicle: distilled water + alcohol) was 3 of 6 on day 11 and the survivor count (dose: 48.0 mg/kg/injection, schedule: Q04DX003 (sc), vehicle: distilled water + alcohol) was 3 of 6 on day 11.

In the case of `[N-]=[N+]=C1N=CN=C1c1ncn[nH]1`, the survivor count [3] is reported as 1 of 2 on day 11 and the survivor count [4] is reported as 0 of 3 on day 11.

For `C/C=C/c1cc2c(c(=O)o1)C(=O)[C@@H](O)[C@H](C)O2`, the survivor count [2] was 2 of 6 on day 11.

With `COC1=C(C)C(=O)C2=C(C1=O)C1C3CC4=C(C(=O)C(OC)=C(C)C4=O)C(CNC(=O)C(C)=O)N3C(C#N)C(C2)N1C` (stereo not drawn) the T/C (dose: 2.0 mg/kg/injection, schedule: Q04DX003 (sc), vehicle: Klucel (hydroxypropylcellulose) (HPC)) was 135 % of control and the survivor count (dose: 8.0 mg/kg/injection, schedule: Q04DX003 (sc), vehicle: Klucel (hydroxypropylcellulose) (HPC)) was 1 of 6 on day 11.

With `Nc1ccccc1N` the T/C [3] was 125 % of control, the survivor count [5] was 0 of 3 on day 11 and the survivor count [6] was 0 of 3 on day 11.

For `O=S1(=O)CS(=O)(=O)OCCO1`, the survivor count (dose: 150.0 mg/kg/injection, schedule: Q04DX003 (sc), vehicle: Klucel (hydroxypropylcellulose) (HPC)) was 3 of 6 on day 11, the survivor count [7] was 1 of 6 on day 11 and the survivor count (dose: 300.0 mg/kg/injection, schedule: Q04DX003 (sc), vehicle: Klucel (hydroxypropylcellulose) (HPC)) was 1 of 6 on day 11. The survivor count [8] was 0 of 6 on day 11.

For `CN(C)N=Nc1ccccc1`, the survivor count [7] was 2 of 6 on day 11, the survivor count [8] was 0 of 6 on day 11 and the survivor count (dose: 800.0 mg/kg/injection, schedule: Q04DX003 (sc), vehicle: Klucel (hydroxypropylcellulose) (HPC)) was 0 of 6 on day 11.

In the case of `[CH3][Sn]([CH3])([Cl])[c]1cc[c]([Sn]([CH3])([CH3])[Cl])cc1`, the survivor count (dose: 10.0 mg/kg/injection, schedule: Q04DX003 (ip), vehicle: saline) is reported as 0 of 6 on day 11.

`O=C1C=C(C2OC(CO)C(O)C2O)C(=O)N1` (stereo not drawn) was tested, and the survivor count [1] was 1 of 3 on day 11 and the survivor count [9] was 0 of 3 on day 11.

In the case of `CC(=O)OCC1OC(OC2=C(CC=C(C)C)C(=O)c3ccccc3C2=O)C(OC(C)=O)C(OC(C)=O)C1OC(C)=O` (stereo not drawn), the survivor count [10] is reported as 1 of 3 on day 11.

With `Cc1cccc(OCC(O)CN2CC2)c1` (stereo not drawn) the survivor count (dose: 400.0 mg/kg/injection, schedule: Q04DX003 (ip), vehicle: saline with Tween-80) was 0 of 6 on day 11.

With `OC(CBr)C(O)C(O)C(O)CBr` (stereo not drawn) the survivor count (dose: 15.0 mg/kg/injection, schedule: Q01DX010 (sc), vehicle: Klucel (hydroxypropylcellulose) (HPC)) was 1 of 3 on day 11, the T/C [11] was -84, -29, -23 % of control and the survivor count [11] was 1 of 3 on day 11. The T/C [12] was -61 % of control [2 of 2 alive on day 11], the survivor count [12] was 0 of 3 on day 11 and 1 of 2 on day 11 and the survivor count (dose: 240.0 mg/kg/injection, schedule: Q01DX010 (sc), vehicle: Klucel (hydroxypropylcellulose) (HPC)) was 0 of 3 on day 11. The survivor count (dose: 480.0 mg/kg/injection, schedule: Q01DX010 (sc), vehicle: Klucel (hydroxypropylcellulose) (HPC)) was 0 of 3 on day 11 and the survivor count (dose: 1600.0 mg/kg/injection, schedule: Q01DX010 (sc), vehicle: Klucel (hydroxypropylcellulose) (HPC)) was 0 of 3 on day 11.

For `CCCC(=O)Oc1ccc(/C=N/NC(N)=S)nc1`, the survivor count (dose: 400.0 mg/kg/injection, schedule: Q01DX010 (sc), vehicle: saline with Tween-80) was 0 of 3 on day 11.

In the case of `C/C(=C\c1ccccc1)[N+](=O)[O-]`, the survivor count [5] is reported as 1 of 3 on day 11 and the survivor count [6] is reported as 0 of 3 on day 11.

In the case of `COc1cccc2c1C(=O)c1c(O)c3c(c(O)c1C2=O)C[C@@](O)(C(C)=O)C[C@@H]3OC1CC(N(Cc2ccccc2)Cc2ccccc2)C(O)C(C)O1` (stereo partly drawn), the survivor count (dose: 50.0 mg/kg/injection, schedule: Q01DX010 (sc), vehicle: water) is reported as 0 of 3 on day 11, 0 of 6 on day 11, 1 of 3 on day 11 and the survivor count (dose: 100.0 mg/kg/injection, schedule: Q01DX010 (sc), vehicle: water) is reported as 0 of 3 on day 11 and 0 of 6 on day 11.

`Nc1ncc(C2OC(CO)C(O)C2O)c(=O)[nH]1` (stereo not drawn) was tested, and the survivor count (dose: 1200.0 mg/kg/injection, schedule: Q04DX003 (ip), vehicle: saline) was 0 of 6 on day 11.

`CN(CCN(C)C(=O)CCOS(C)(=O)=O)C(=O)CCOS(C)(=O)=O` was tested, and the survivor count [2] was 0 of 6 on day 11.

For `C=C1CC2(OC1=O)C(=O)N(C)c1ccc(I)cc12` (stereo not drawn), the T/C (dose: 2400.0 mg/kg/injection, schedule: Q04DX003 (sc), vehicle: suspension in saline) was 136 % of control [4 of 6 alive on day 11].

`c1ccc2sc(SSN3CC4CCC(CC4)C3)nc2c1` was tested, and the T/C (dose: 50.0 mg/kg/injection, schedule: Q01DX010 (sc), vehicle: saline with Tween-80) was 136 % of control and the T/C (dose: 100.0 mg/kg/injection, schedule: Q01DX010 (sc), vehicle: saline with Tween-80) was 136 % of control.

In the case of `N=C(N)Sc1ccccn1`, the T/C [9] is reported as 55, 56, 109, 158 % of control [2 of 2 alive on day 11], the T/C [13] is reported as 21 [2 of 2 alive on day 11], 38, 82, 120 % of control and the T/C [14] is reported as 29 [2 of 3 alive on day 11], 82, 109 % of control. The survivor count [14] was 1 of 3 on day 11 and the survivor count [15] was 0 of 2 on day 11, 0 of 3 on day 11, 0 of 6 on day 11.

For `CC/C(=C(\c1ccccc1)c1ccc(OCCN(C)C)cc1)c1ccccc1`, the survivor count [4] was 1 of 2 on day 11, the survivor count [10] was 1 of 2 on day 11 and the survivor count [5] was 1 of 3 on day 11.

`OCC1(CO)COC2(CCCCC2)N1` was tested, and the T/C [13] was 128 % of control and the survivor count [15] was 0 of 2 on day 11.

In the case of `CC(=O)Oc1c(C)[nH]ccc1=O`, the survivor count (dose: 1600.0 mg/kg/injection, schedule: Q04DX003 (sc), vehicle: suspension in saline) is reported as 3 of 6 on day 11.

For `COC1/C=C/O[C@@]2(C)Oc3c(C)c(O)c4c(O)c(cc(O)c4c3C2=O)NC(=O)/C(C)=C\C=C\[C@H](C)C(O)[C@@H](C)[C@@H](O)[C@@H](C)[C@H](OC(C)=O)[C@@H]1C` (stereo partly drawn), the T/C (dose: 300.0 mg/kg/injection, schedule: Q04DX003 (sc), vehicle: suspension in saline) was 137 % of control and the T/C (dose: 1200.0 mg/kg/injection, schedule: Q04DX003 (sc), vehicle: suspension in saline) was 144 % of control.
